Test results: patent EP4631963A1, “PEPTIDE FOR CARTILAGE REGENERATION, AND USES THEREOF” (Caregen Co., Ltd., priority 2022, dated 2024)
Part of at least one peptide drawing is inferred or uncertain, most often the ends. Where a SMILES comes first, the peptide text is derived from it. Where no end group is shown, it is not given here.

Experiments:
Type in all cases: cell-based, human
SOX9 [1] = assay: Expression of ECM regulatory factors (Western blot); conditions: C28/I2 cells, different concentrations, 1, 3 and 7 days, FIG. 9, FIG. 10
COL2A1 [2] = assay: Expression of cartilage components (Western blot); conditions: C28/I2 cells, different concentrations, 1, 3 and 7 days, FIG. 11, FIG. 12
COL11A = assay: mRNA expression of ECM components (PCR); conditions: C28/I2 cells, different concentrations, 1, 3 and 7 days, FIG. 5, FIG. 6
SOX5 = assay: Expression of ECM regulatory factors (Western blot); conditions: C28/I2 cells, different concentrations, 1, 3 and 7 days, FIG. 9, FIG. 10
SOX9 [3] = assay: mRNA expression of ECM regulatory factor SOX9 (PCR); conditions: C28/I2 cells, different concentrations, 1, 3 and 7 days, FIG. 7, FIG. 8
SOX6 = assay: Expression of ECM regulatory factors (Western blot); conditions: C28/I2 cells, different concentrations, 1, 3 and 7 days, FIG. 9, FIG. 10
ACAN = assay: mRNA expression of ECM components (PCR); conditions: C28/I2 cells, different concentrations, 1, 3 and 7 days, FIG. 5, FIG. 6
COL2A1 [4] = assay: mRNA expression of ECM components (PCR); conditions: C28/I2 cells, different concentrations, 1, 3 and 7 days, FIG. 5, FIG. 6
COMP = assay: mRNA expression of ECM components (PCR); conditions: C28/I2 cells, different concentrations, 1, 3 and 7 days, FIG. 5, FIG. 6
glycosaminoglycan = assay: Glycosaminoglycan production, Alcian blue staining; conditions: C28/I2 cells, different concentrations, 7 days, FIG. 3, FIG. 4
aggrecan = assay: Expression of cartilage components (Western blot); conditions: C28/I2 cells, different concentrations, 1, 3 and 7 days, FIG. 11, FIG. 12

Compound | expression of ECM regulatory factor SOX9 (SOX9 [1]) | expression of cartilage component COL2A1 (COL2A1 [2]) | mRNA production of COL11A (COL11A) | expression of ECM regulatory factor SOX5 (SOX5) | production of SOX9, an ECM regulatory factor (mRNA) (SOX9 [3]) | expression of ECM regulatory factor SOX6 (SOX6) | mRNA production of ACAN (ACAN) | mRNA production of COL2A1 (COL2A1 [4]) | mRNA production of COMP (COMP) | production of glycosaminoglycan (glycosaminoglycan) | expression of cartilage component aggrecan (aggrecan)
HHEERY [Peptide-1, HHEERY] | increased the expression | increased the expression | increased the mRNA production | increased the expression | induced the production of SOX9 | increased the expression | increased the mRNA production | increased the mRNA production | increased the mRNA production | promoted the production of glycosaminoglycan | increased the expression
CC(C)C[C@H](NC(=O)[C@@H](NC(=O)[C@@H](N)CCCNC(=N)N)[C@@H](C)O)C(=O)N[C@@H](CCC(=O)O)C(=O)O [Peptide-2, RTLE] (H-RTLE-OH) | increased the expression | increased the expression | increased the mRNA production | increased the expression | induced the production of SOX9 | increased the expression | increased the mRNA production | increased the mRNA production | increased the mRNA production | promoted the production of glycosaminoglycan | increased the expression
